PubChem BioAssay AID1794844 (National Center for Advancing Translational Sciences (NCATS), 2023)
The whole screen tested about 2,800 compounds, of which fewer than 10 were called active. About 7% were inconclusive and are not listed. Calls follow the shape of the dose curve; as a rule, active = well fitted inhibition curve with a large enough effect; inconclusive = small, poorly fitted or top-dose-only effect; inactive = no such curve, though single readings can be large or run the other way. Some of the results follow.

By UniProt entry, the sequences of proteins in these tests, tags left out. Where a name states a change or a piece, a line headed by the entry shows the natural chain unless it says otherwise.
UniProt C7C422: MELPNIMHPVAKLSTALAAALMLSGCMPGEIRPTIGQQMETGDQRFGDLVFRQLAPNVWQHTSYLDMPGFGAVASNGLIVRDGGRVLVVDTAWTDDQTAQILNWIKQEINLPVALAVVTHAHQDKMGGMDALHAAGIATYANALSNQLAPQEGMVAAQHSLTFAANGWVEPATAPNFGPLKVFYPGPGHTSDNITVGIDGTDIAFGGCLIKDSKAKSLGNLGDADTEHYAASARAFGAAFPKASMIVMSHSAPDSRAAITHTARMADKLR

target: Metallo-beta-lactamase type 2 (Klebsiella pneumoniae) (UniProt C7C422); test: qHTS to identify inhibitors of the New Delhi Metallo-beta-lactamase (NDM): Nitrocefin screen against the machine-based learning selections.; as to activity, negative = inhibition: % of control where 0% means no effect; conditions: NDM-1 enzyme, nitrocefin hydrolysis, absorbance 485 nm; activity, negative = inhibition: at the top concentration
How it was run: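 Hydrolysis by 2 nM NDM-1 was followed by absorbance after >30 min compound preincubation in HEPES pH 7.0 buffer with 1 uM Zn2SO4. For nitrocefin (16.7 uM, 15 min, 485 nm) and meropenem (50 uM, 30 min, 300 nm), each substrate ran on separate plates.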
Potency is read from the fitted curve at half-maximal effect.

SMILES | activity, negative = inhibition | Potency
Clc1ccc(-c2cnc3n2C[C@H](CNCc2ccc4c(c2)OCO4)OC3)cc1 | inactive: 1.4% [at 57.5 µM] | –
Cc1cc(C)n2nc(C(=O)N3CCC(Cc4cccc(C(N)=O)c4)C3)nc2n1 (centres undefined) | inactive: -1.01% | –
COCc1cc(=O)n(CC(=O)Nc2cccc(F)c2)c(N2CCOCC2)n1 | inactive: -5.04% | –
CN(Cc1ccsc1)CC1(O)CCCN(CCCc2ccccc2)C1=O (centres undefined) | inactive: -7.5% | –
Cc1ncccc1C(=O)N1CCC(N2CC3CC(C2)[C@H]2CCCC(=O)N2C3)CC1 (some centres undefined) | inactive: 1.4% | –
C=CCN(C)C(=O)[C@@H](C)C1CC[C@@]2(C)Cc3sc(NCCCC)nc3[C@@H](C)[C@@H]2[C@H]1O (some centres undefined) | inactive: -2.55% [at 57.5 µM] | –
O=[N+]([O-])c1cccc(-c2noc([C@@H]3C[C@@H](O)CN3Cc3ccccc3)n2)c1 | inactive: -1.06% [at 57.5 µM] | –
COc1ccc(-c2nnc3n2CCN(C(=O)N(C)C)C3)cc1 | inactive: 2.36% [at 57.5 µM] | –
Cn1c(=O)[nH]cc(CC(=O)N2CCCC(c3cccc(C(=O)O)c3)C2)c1=O (centres undefined) | inactive: 240% | –
Cn1ncc(N2CCC(CNC(=O)c3cccc(-c4ncc[nH]4)c3)C2)cc1=O (centres undefined) | inactive: 1.92% | –
Cc1cc(C(=O)N2CC(N(C3CCOCC3)S(C)(=O)=O)C2)nn1C | inactive: 2.04% | –
CCNC(=O)NC[C@@H]1C=C(C)[C@H](CC(=O)NCc2ccccn2)C[C@H]1C(C)C | inactive: -21.3% [at 57.5 µM] | –
CN(Cc1ccccc1)Cc1cn([C@H]2CO[C@H]3[C@@H]2OC[C@@H]3NCc2ccccc2)nn1 | inactive: 0% [at 57.5 µM] | –
Cc1ccc2c(c1)c(Cn1cnc(-c3ccccc3)c1-c1cnc[nH]1)nn2C | inactive: 0.619% | –
CCCC1(CO)CCCN(CC(=O)NC(C)(C)CC)C1 (centres undefined) | inactive: -1.95% | –
CCCN(CC1CCOC1)C(=O)Nc1cccc(F)c1C (centres undefined) | inactive: 1.38% | –
Cn1c(COc2cccc(C(F)(F)F)c2Cl)nnc1C1CC(N)C1 (centres undefined) | inactive: 1.95% | –
COc1cccc(-c2cc(C(=O)NCCNc3nc(C)cc(=O)[nH]3)[nH]n2)c1 | inactive: 8.33% | –
O=C(N1CCC2(CCCCO2)CC1)C1(c2ccccc2)CC1 | inactive: 2.89% | –
O=C1CCCCC(C(=O)N2CCOCC2)N1 (centres undefined) | inactive: -8.89% | –
OC(c1cccc(C(F)(F)F)c1)c1nc(Nc2ccc(F)cc2)n[nH]1 (centres undefined) | inactive: 3.6% [at 57.5 µM] | –
COCC(=O)N1C[C@@H]2C[C@H]1C(=O)N(Cc1ccccn1)c1ccccc1O2 | inactive: -2.07% [at 57.5 µM] | –

SMILES | activity, negative = inhibition | Potency
COc1ccc(-c2[nH]nc3ncc(-c4ccccc4O)nc23)cc1F | inactive: -7.73% [at 57.5 µM] | –
O=c1cc(-c2ccncc2)oc2c(-c3cccc(O)c3)nccc12 | inactive: 10.7% [at 57.5 µM] | –
O=C(NC1CCCCC1)O[C@@H]1CO[C@H]2[C@@H]1OC[C@@H]2n1nnnc1-c1ccc2c(c1)OCCO2 | inactive: 0.868% | –
CN1C[C@H](NCC2CC2)CCC[C@@H](C(=O)NCc2cc(F)cc(F)c2)CC1=O | inactive: -0.247% [at 57.5 µM] | –
O=C1N(CCCCOc2ccccc2)c2ccccc2NC12CCNCC2 | inactive: 7.34% | –
COc1ccc(CNC(=O)C[C@@H]2C[C@H]3O[C@H](CNC4CCNCC4)[C@@H](O)[C@H]3O2)cc1 | inactive: -9.78% [at 57.5 µM] | –
C=CCCC(CN1CCCOCC1)Oc1ccc(-c2ccccc2)nn1 (centres undefined) | inactive: -13.9% | –
COc1ccc(CN[C@H]2[C@H](O)[C@@H](N(C)CCc3ccccn3)[C@@H]3OC[C@H]2O3)cc1 | inactive: 6.01% [at 57.5 µM] | –
Cc1noc2c(Nc3ccc(C(N)=O)cc3)cc(-c3ccsc3)nc12 | inactive: -0.904% [at 57.5 µM] | –
COc1ccc(NC2CCCN(C(=O)c3ccc(S(N)(=O)=O)cc3)C2)cc1 (centres undefined) | inactive: -12.7% | –
Cc1nc(C)c(C(=O)NCC(=O)N2CCCCCNC(=O)CC2c2ccccc2)s1 (centres undefined) | inactive: 0.516% | –
COc1ccc(CN2CC3(CCN(C(=O)Cc4c[nH]c5ccccc45)CC3)C2=O)cc1 | inactive: 2.17% | –
O=C(O)CN1CCC[C@]2(C(=O)O)CN(Cc3cccc(O)c3)CC[C@@H]12 | – | active: 3.35 µM
CN(Cc1ccc(F)cc1)c1ccc2ncc(Nc3cccc(N[S+](C)(=O)[O-])c3)n2n1 | inactive: -27.5% | –
Cc1nc(C2CCCCN2C(=O)Cc2ccccc2)n[nH]1 (centres undefined) | inactive: 8.61% | –
COc1ccc(C(=O)Nc2ccc(-c3noc([C@@H]4CCCN4CCCc4ccccc4)n3)cn2)cc1 | inactive: 2.67% | –
O=C(Cc1c[nH]c2ncc(-c3cccc(OC(F)(F)F)c3)cc12)NCc1cccnc1 | inactive: 3.6% [at 57.5 µM] | –
COC(=O)[C@H]1CN(C(C)=O)CCN1C(C)=O | inactive: -2.17% [at 76.7 µM] | –
Cc1ccc2c(c1)nc1n2[C@@H](CNCc2nccn2C)COC1 | inactive: -3.82% [at 57.5 µM] | –
COc1ccc(-c2nc3ccncc3[nH]2)cc1 | inactive: -12.9% [at 76.7 µM] | –
CN1C[C@@H](NC(=O)c2ccc(C(C)(C)C)cc2)C[C@H]1c1nc(-c2ccc3c(c2)OCO3)no1 | inactive: 0.308% | –
O=C1CC2CCCC(C1)N2C(=O)c1cccc(Br)c1 | inactive: -0.0617% [at 57.5 µM] | –

Looked up above:
Entry for Cc1nc(C)c(C(=O)NCC(=O)N2CCCCCNC(=O)CC2c2ccccc2)s1 (centres undefined) under activity, negative = inhibition: inactive: 0.516%
Entry for CN1C[C@H](NCC2CC2)CCC[C@@H](C(=O)NCc2cc(F)cc(F)c2)CC1=O under activity, negative = inhibition: inactive: -0.247% [at 57.5 µM]
Entry for COc1ccc(CN2CC3(CCN(C(=O)Cc4c[nH]c5ccccc45)CC3)C2=O)cc1 under activity, negative = inhibition: inactive: 2.17%

Next structures follow:

SMILES | activity, negative = inhibition | Potency
O=C(N[C@H]1C[C@@H]2C(=O)N[C@H]3CCN(C(=O)c4cccs4)[C@@H]3C(=O)N2C1)C1CCCC1 | inactive: -4.3% [at 57.5 µM] | –
CCc1cc(C(=O)NCc2cc3n(n2)CCCN(S(C)(=O)=O)C3)cs1 | inactive: -6.41% | –
CC(C)(O)CCc1cccc(C(=O)N[C@H]2CCC[C@H]2C(N)=O)c1 | inactive: -3.93% | –
CC1=C[C@@H](CNCCN(C)C)[C@H](C(C)C)C[C@H]1Cc1nnc(C(C)(C)C)o1 | inactive: 4.1% [at 57.5 µM] | –
c1cncc(CN2CCC[C@H]2c2nc(-c3ccc(-n4ccnc4)nc3)no2)c1 | inactive: -6.33% [at 57.5 µM] | –
O=C(Cc1c[nH]c2ncc(-c3ccccc3)cc12)NC1CC1 | inactive: 9.86% [at 76.7 µM] | –
Cn1cccc1C(=O)C(=O)N1CCC(O)(CN2CCOCC2)C(C)(C)C1 (centres undefined) | inactive: -1.49% | –
COc1c(C)cccc1-c1nc(C2CCOC2)no1 (centres undefined) | inactive: 0.0925% | –
CCCC(c1cccs1)n1cc(-c2cncnc2)nn1 (centres undefined) | inactive: -2.72% | –
O=C(COc1ccccc1)NC[C@H]1Cn2c(-c3ccc(Cl)cc3)cnc2CO1 | inactive: -19.3% [at 57.5 µM] | –
O=C(Cc1ccccc1O)N1CCCC(CCc2c(F)cccc2F)C1 (centres undefined) | inactive: -8.74% | –
CCS(=O)(=O)N1CCC(Cc2nc(-c3cccnc3)n[nH]2)C1 (centres undefined) | inactive: 3.9% | –
COc1ccccc1C(O)c1nc(Nc2ccc(Cl)cc2F)n[nH]1 (centres undefined) | inactive: -0.615% [at 57.5 µM] | –
CN1CCC(C2CCN(C(=O)NC3CCCC3)C2)CC1 (centres undefined) | inactive: 4.7% | –
C=CCC1(CO)CCCN(CCS(=O)(=O)c2ccccc2)C1 (centres undefined) | inactive: 4.09% | –
OCC1(CC2CC2)CCCN(c2nccc(C(F)(F)F)n2)C1 (centres undefined) | inactive: -0.503% | –
Cc1ccccc1-c1nccn2c(C3CN(Cc4ccccc4O)C3)ncc12 | inactive: -0.386% [at 57.5 µM] | –
CN(C)c1ccc(CN[C@H]2C[C@H]3C(=O)NC[C@@H](CCC(=O)N4CCC(O)CC4)N3C2)cc1 | inactive: -0.133% | –
COc1ccc(OCc2nc(C(=O)N3CCCC(C(C)(C)O)C3)co2)cc1 (centres undefined) | inactive: 7.43% | –
Cn1cc(-c2cnc(NC(=O)c3c[nH]c4ccccc34)c3c2CCO3)cn1 | inactive: 0.246% [at 57.5 µM] | –
